Here are results for 19 molecules from PMC10163288.

The list shows a part of the results.

To fix the notation:
B1: il2ra_site2_2erj_sap_30_mot_HHH_b1_00612_000000025_0001_42_56_H_._HHH_b2_05479_af2_0001_0000200009_0000001_0_0001 (protein)
chain: SSSSSESLEAAREFAQEAYENGDRSALELFLEFAERSLEATGDPRIEELLEYIRELLEELSSSSS
B2: il2ra_site1_2b5i_normal_mot_22370d59370c406a0c205a431f537cfa_0001_af2_000000141_0001_1_31_H_._HHH_b1_01338_af2_0001_0000100004_0000001_0_af2pred_0001_af2pred (protein)
chain: SSSSDDELLRFAVRVIFKLRAEFGLSAEQAKELDKIAAELVEEGVSEEEIEEILREVAEELSSSS
B3: il2ra_site1_1z92_sap_9_mot_HHH_b2_04375_000000267_0001_42_56_H_._HHH_b2_04201_af2_0001_0000600051_0000001_0_0001_af2pred_0001_af2pred_swapped (protein)
chain: NLSTREEIEEAIKKNDDELLKRILELAERAAGDPKLAKQFLKILIAKLLGDPEEAEKIVERIERR
B4: il2ra_site1_3nfp_sap_18_mot_HHH_b1_02896_af2_000000287_0001_1_17_H_._HHH_b1_08185_0001_0000800023_0000001_0_0001 (protein)
chain: SSSSTEELEELLELVEEAYRALQEGDEELVEELLEEAKELAKKLGDKIALRLLEDIEENTSSSSS
B5: il2ra_site2_3nfp_normal_mot_HHH_b2_04451_000000238_0001_21_37_H_._HHH_b1_01319_af2_0001_0000700039_0000001_0 (protein)
chain: SSSSDLEELAEELLELVEKARTEEEKNELLRLLAELTEEVAKAGDEEAARLILEAFQLLQNSSSS
B6: il2ra_site2_3nfp_sap_21_mot_HHH_b1_07114_000000063_0001_43_53_H_._5b280ff452c1d219987978312b678990_0001_0001_0000500039_0000001_0_0001 (protein)
chain: SSSSSKAEEYLEAVVKVIEEALEAGDRESARSSLEAAEQVAELHGDEELLERLEELKELVNSSSS
B7: il2ra_site1_3nfp_normal_mot_HHH_b1_04049_af2_000000244_0001_42_55_H_._d1fb33ed66649044859e967e86ea168f_0001_af2_0001_0000400011_0000001_0_af2pred_0001_af2pred_1 (protein)
chain: SRERAIRTIIRSLKRHPDPEVRRLAEEAEELLENGDPEEALKVLKEAAELAGDPVLKELIQRLLE
B8: il2ra_site1_3nfp_sap_8_mot_HHH_b1_07440_af2_000000231_0001_1_19_H_._HHH_b1_05395_af2_0001_0000300015_0000001_0_0001 (protein)
chain: SSSSSEVRKRAQRLIKEAMEANAHGNPEEAEELLREAEELAKEANDEWALKMIRELLERVTSSSS
B9: il2ra_site1_3nfp_normal_mot_HHH_b1_02721_af2_000000134_0001_39_56_H_._HHH_b1_06677_0001_0000400043_0000001_0 (protein)
chain: SSSSSREAQEALREITEALKEGDYELAEKLIEEAEELAEELNSELLKRLLEQLKEYLERLKSSSS
B10: il2ra_site2_3nfp_normal_mot_HHH_b1_07318_af2_000000161_0001_22_38_H_._HHH_b2_01617_0001_0000400032_0000001_1 (protein)
chain: SSSSDAELAAEDLLALLERLGDEESFRELEELLEKLKETGDPEDQLELYELIREIFEELQSSSSS
B11: il2ra_site1_1z92_normal_mot_HHH_b2_06308_af2_000000104_0001_1_20_H_._ea6b996f6416bdbfe5a1271cf9e5b7ac_0001_1_0001_0000200033_0000001_0_af2pred_0001_af2pred_1 (protein)
chain: PEEFLREQLEKKLKRDPEAAKKLLEKLLRAEGVPPEEIEKILRQVEELAKRDPEKAAELAIELLR
B12: il2ra_site2_2erj_normal_mot_b5c6f2848cbf55e1ecbd417c35b42da7_0001_af2_000000155_0001_1_14_H_._HHH_b1_03316_af2_0001_0000300008_0000001_0 (protein)
chain: SSSSDSLEELQELIEKAFENNDRSRLKLLIRYLELSLKQTGDPRVEELLREAEELLERLNSSSSS
B13: il2ra_site2_2erj_normal_mot_HHH_b1_03609_af2_000000077_0001_42_55_H_._HHH_b2_01692_0001_0000500006_0000001_0 (protein)
chain: SSSSSEVEEEVREILEEAKHIEDPEEREKVLSKAAELAFENNDFEAWSLVSEVFRELAESSSSSS
B14: il2ra_site2_3nfp_normal_mot_7cf5847eaa050a71bc877a27954f5424_0001_1_af2_000000114_0001_17_30_H_._c458a205a670bde904f9ae2de9a5ce79_0001_1_0001_0000100001_0000001 … (protein)
chain: SFRILLEEAVEEGNLEEVLKKFVERAEELSGNPEDARSLAKAAIERVLPDPRLQEEAKKIVEEVG
B15: il2ra_site2_3nfp_sap_24_mot_HHH_b2_04623_000000077_0001_1_15_H_._c2dd1dc352432ff47dded349a4d391fc_0001_1_0001_0000500054_0000001_0_0001 (protein)
chain: SSSSSSDHEFYERVVKLLKKANRIEDEEELQKVLEEARELAEELGSEVLRRSVEDTAKALSSSSS
B16: il2ra_site1_2b5i_normal_mot_HHH_b2_04353_af2_000000128_0001_1_17_H_._HHH_b1_04049_0001_0000200012_0000001_0_af2pred_dldesign_0_af2pred (protein)
chain: SSSSSDPEEEVYDLFKEALRLRKAGKREEARKVLEKALEKAKELGNEKLVSELERLLKLLSSSSS
B17: il2ra_site1_1z92_normal_mot_57fbbab2d607e533440bfb1b251026a3_0001_af2_000000189_0001_1_16_H_._HHH_b1_08204_0001_0000300017_0000001_1_1_af2pred_0001_af2pred_1 (protein)
chain: SSSSSDEELLEEAERLVEEVEEKRDARLRFEVAEFINEAAKKVDDPEIFERLAELFELLSSSSSS
B18: il2ra_site2_3nfp_sap_20_mot_HHH_b1_05796_000000051_0001_39_56_H_._52ba57536a5f4d361b988889b6b0b76f_0001_0001_0000100005_0000001_0_0001 (protein)
chain: SSSSDEEEKELEKLLEELKKAVEDGDEELVRRIRARVTQLAWELGDAEVFFEVAELAIALNSSSS
B19: il2ra_site1_1z92_normal_mot_HHH_b1_07140_000000289_0001_23_40_H_._HHH_b2_05789_af2_0002_0000200026_0000001_0_af2pred_0001_af2pred_1 (protein)
chain: SSSSSDEREIAKEALELFEEANKVKDEEELEELLEKALELAREGNNERLVKSLERLLDDDSSSSS

The target of this assay is il2ra, P01589. In words: yeast display titration.
On to B1, for which the “apparent Kd” value was “inactive: no binding seen”.

With B2, the “apparent Kd” value was “inactive: no binding seen”. The entry for B3 is “inactive: no binding seen”. Consider B4, for which the “apparent Kd” value is “inactive: no binding seen”. In the case of B5, the “apparent Kd” value is “inactive: no binding seen”.

For B6, the “apparent Kd” value was “inactive: no binding seen”. Take B7: the “apparent Kd” value is “inactive: no binding seen”.

B8: the “apparent Kd” value was “inactive: no binding seen”. Turning to B9, the “apparent Kd” value was “inactive: no binding seen”. Turning to B10, the “apparent Kd” value is “inactive: no binding seen”. B11: the “apparent Kd” value is “inactive: no binding seen”.

On to B12, for which the “apparent Kd” value was “inactive: no binding seen”. Consider B13, for which the “apparent Kd” value was “inactive: no binding seen”. The entry for B14 is “inactive: no binding seen”. In the case of B15, the “apparent Kd” value is “inactive: no binding seen”. Consider B16, for which the “apparent Kd” value was “inactive: no binding seen”. On to B17, for which the “apparent Kd” value was “inactive: no binding seen”.

B18: the “apparent Kd” value is “inactive: no binding seen”. Turning to B19, the “apparent Kd” value is “inactive: no binding seen”.
